Measured values taken from the supplement of paper PMC12889115.
The list shows a part of the results. Values are raw readings; no control value is given beside them.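 In the initial screen, polymyxin B was used at a concentration that permeabilizes Salmonella's outer membrane but not its inner membrane. Maximum growth was set by DMSO wells with or without polymyxin B. Since plates varied, data were ranked per plate, and compounds giving the lowest OD600 advanced as hits.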

Tested on: Salmonella enterica serovar Typhimurium SL1344
Assay: bacterial growth OD600 after 18 h with compound and polymyxin B; higher = more bacterial growth (less inhibition)
Conditions: 50 µM, Mueller-Hinton broth

Structure (SMILES) | bacterial growth OD600 (polymyxin B 1 µg/mL) | bacterial growth OD600 (polymyxin B 0.75 µg/mL)
Cc1c(CN2CCCC(C(=O)c3cccc(OC(C)C)c3)C2)c(=O)n(-c2ccccc2)n1C (centres undefined) | 0.773 | –
COc1ccc(OC2CCN(C(=O)C3CC3)CC2)c(C(=O)NCc2cc(F)cc(F)c2)c1 | 1 | –
COc1ccccc1CCN1CCCC(CN(C)C(=O)C(C)(C)C)C1 (centres undefined) | 0.77 | –
CN(C(=O)c1ccsc1)C(Cc1ccccc1)C1CCN(C(=O)/C=C/c2ccccc2)CC1 (centres undefined) | – | 0.031
Cc1ccsc1C(=O)N1CCc2onc(-c3ccccc3F)c2C1 | – | 0.622
COCC(=O)Nc1cc(C(=O)N2CCC(Oc3ccccc3F)CC2)c2c(c1)nc(C1CCC1)n2C | – | 0.974
CCC1CN(CC(=O)NC(CCn2ccnc2)c2ccccc2)Cc2cc(OC)ccc2O1 (centres undefined) | – | 0.785
CCNC(=O)c1sc2ncnc(N3CCCCCCC3)c2c1C | – | 0.747
CCOc1ccccc1CN1CCC(C(Cc2ccccc2)N(CC)C(=O)C2CCOCC2)CC1 (centres undefined) | – | 0.826
NC(=O)C1CCCN(C(=O)c2ccc(OC3CCN(CCc4ccccc4)CC3)cc2)C1 (centres undefined) | 1.21 | –
CCOC(=O)C1(Cc2ccc(OC)cc2)CCN(S(=O)(=O)c2ccccc2)CC1 | 0.718 | –
Cc1c[nH]c(CN(C)c2ccc(-c3nc(-c4ccccc4F)no3)cn2)n1 | 0.922 | –
CC(=O)N1CCN(Cc2cn(-c3cccc(C)c3)nc2-c2cccc(F)c2)CC1 | 0.93 | –
COCC(C)Nc1ccc(-c2nc(Cc3ccc(F)cc3)no2)cn1 (centres undefined) | – | 0.41
O=C(Cc1ccccc1)Nc1nc2c(s1)C(=O)CC(C(=O)NCc1cccc(-n3cccn3)c1)C2 (centres undefined) | – | 1.03
O=C(c1cn(C2CCCCC2)nn1)N(CC1CC1)CC1CCCO1 (centres undefined) | 0.956 | –
Cc1cc(C)n(Cc2cc(C(=O)N(C)C(C)c3ccon3)n[nH]2)n1 (centres undefined) | – | 0.872
COc1cc(C(=O)NC2CC(C)(C)CC(C)(C)C2)ccc1OC1CCN(C(C)=O)CC1 | 0.975 | –
COc1cccc(CN2CCN(C(=O)CCC3(Cc4cccs4)CCC(=O)N3)CC2=O)c1 (centres undefined) | – | 0.856

A different layout for part of the listing above:
Structure (SMILES)	bacterial growth OD600 (polymyxin B 1 µg/mL)	bacterial growth OD600 (polymyxin B 0.75 µg/mL)
O=C(Cc1ccccc1)Nc1nc2c(s1)C(=O)CC(C(=O)NCc1cccc(-n3cccn3)c1)C2 (centres undefined)	–	1.03
O=C(c1cn(C2CCCCC2)nn1)N(CC1CC1)CC1CCCO1 (centres undefined)	0.956	–
